The text below walks through data of PubChem BioAssay AID1487 (National Center for Advancing Translational Sciences (NCATS), 2009).

Structures are written as SMILES. Some of the results follow. These are further read-outs of the screen, such as a control signal, another cell line or another target. No call is given for them. Compounds called inactive in the main read-out are mostly missing here. The note in brackets gives the kind of curve behind each potency; many fits are weak.

This assay is described as follows: qHTS Assay for Modulators of Lamin A Splicing. The following applies: HeLa LMNA splicing GFP/RFP minigene ratio, 48 h. A digest of the protocol: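 S3 HeLa cells stably expressing lamin A-EGFP splicing minigene plus DsRed2, 600 cells/well, 48 h compound exposure at 37C. Laser-scanning cytometry; analysed as GFP (500-530 nm)/RFP (575-640 nm) total intensity ratio; 0.5% DMSO vehicle.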

Where [1] appears, read: measured here: RFP viability control channel.
[2] abbreviates: measured here: GFP splicing reporter channel.

For `CN(C(=O)CSc1nc2ncccc2o1)c1ccc(F)cc1`, the AC50 under setting [1] is 20 µM [rising, single point].

Take `Nc1ccccc1Nc1cc(-c2ccccc2)nn1-c1cccc(Cl)c1`: the AC50 under setting [2] is 35.5 µM [rising, single point] and the half-maximal activity concentration (AC50) under setting [1] is 35.5 µM [rising, single point]. On to `Cc1noc(C)c1CSc1nnnn1-c1ccc(Cl)cc1`, for which the half-maximal activity concentration (AC50) under setting [1] was 20 µM [rising, partial curve].

`Cc1ccccc1C(=O)Oc1ccc(Sc2ccc(O)cc2)cc1`: the AC50 is, setting by setting: under setting [2], 11.2 µM [falling, single point]; under setting [1], 22.4 µM [falling, partial curve, poor fit]. Regarding `N#Cc1c(NC(=O)/C=C/c2ccco2)sc2c1CCCC2`, under setting [1], the AC50 was 0.355 µM [rising, full curve, poor fit]. In the case of `CCOC(=O)c1sc2nc3c(SCC(=O)O)cc(C(=O)c4ccccc4O)cn3c(=O)c2c1C`, the AC50 under setting [2] is 0.2 µM [rising, full curve, poor fit]. In the case of `COC(=O)c1ccc(CSc2nnc3c(n2)[nH]c2ccccc23)cc1`, under setting [1], the AC50 was 3.16 µM [rising, partial curve, poor fit]. As for `Cc1ccc(Sc2ncnc3onc(C)c23)c(C)c1`, the AC50 under setting [1] is 7.94 µM [rising, partial curve, poor fit].

As for `O=C(NC(=S)NCCc1ccccc1)C1CCCCC1`, the half-maximal activity concentration (AC50) under setting [1] is 8.91 µM [rising, partial curve]. In the case of `COc1cc(/C=N/Nc2nc3ccccc3[nH]2)cc(OC)c1O`, the half-maximal activity concentration (AC50) under setting [1] is 2.51 µM [rising, partial curve, poor fit]. In the case of `O=C(Nc1ccc(-c2nc3ccccc3o2)cc1)c1cc(-n2cnnc2)ccc1Cl`, the concentration at half-maximal activity (AC50) under setting [1] is 7.08 µM [rising, full curve, poor fit]. Still for that read-out and setting: the result for `Cc1cc(C(=O)N2CCc3ccccc32)n(-c2ccccc2)n1` reads 20 µM [rising, partial curve, poor fit].

As to `Cc1ccc(C)c(Cn2c(=O)cc(C(F)(F)F)c3c(C)nn(C)c32)c1`, the half-maximal activity concentration (AC50) under setting [2] is 3.98 µM [falling, full curve].

With `COc1ccc(C(=O)Nc2ccc(Cl)c(S(=O)(=O)Nc3ccccc3OC)c2)cc1`, the half-maximal activity concentration (AC50) under setting [1] was 2.82 µM [rising, single point]. In the case of `O=c1c2ccc([N+](=O)[O-])cc2ncn1CCOc1cccc(Br)c1`, the AC50 is 6.31 µM [falling, single point] under setting [2] and 4.47 µM [falling, partial curve] under setting [1]. As to `CCCS(=O)(=O)c1c(S(=O)(=O)CCC)c2cc(CC)ccn2c1C(=O)OC`, the AC50 by setting is: under setting [2], 22.4 µM [rising, single point]; under setting [1], 17.8 µM [rising, single point]. As for `O=C(CC1C(=O)NCCN1Cc1ccc(F)cc1)NCCCn1cccn1` (configuration not stated), the AC50 under setting [1] was 0.708 µM [falling, full curve, poor fit]. For `CCOC(=O)c1c(C)[nH]c(C)c1C(=O)CSc1nc2ccccc2c(=O)n1-c1ccc(Cl)cc1`, the AC50 under setting [2] was 14.1 µM [rising, partial curve] and the AC50 under setting [1] is 35.5 µM [rising, single point]. With `OC(c1cccc(OCc2ccccc2)c1)c1nnc(-c2ccccc2)o1` (configuration not stated), the AC50 under setting [1] was 8.91 µM [rising, partial curve]. `CCN=C(Nc1ccc2c(c1)OCO2)SC1CC(=O)N(c2ccc(OC)cc2)C1=O` (configuration not stated): under setting [1], the AC50 is 1.41 µM [rising, partial curve]. Take `COc1ccc(-c2ccc(C#N)c(OC(=O)c3c(Cl)cccc3Cl)n2)cc1`: the AC50 under setting [2] is 11.2 µM [rising, partial curve] and the AC50 under setting [1] was 10 µM [rising, partial curve, poor fit]. Consider `COc1cc2c(cc1OC)-c1cc(Nc3ccc4c(c3)OCCO4)nc(=O)n1CC2`, for which the AC50 under setting [1] was 11.2 µM [rising, single point]. On to `COc1cc(CC(=O)Nc2ccccc2N2CCOCC2)cc(OC)c1OC`, for which the AC50 under setting [1] is 31.6 µM [rising, partial curve, poor fit]. Consider `CCOC(=O)c1c(NC(=O)COc2ncnc3ccccc23)sc(C(C)=O)c1C`, for which the AC50 under setting [1] was 12.6 µM [rising, single point]. With `COC(=O)c1ccc(NC(=S)NCCCN2CCCC2=O)cc1`, under setting [2], the AC50 was 0.398 µM [rising, partial curve]. In the case of `COc1ccccc1C(=O)Nc1nnc(S(=O)(=O)N2CCN(c3ccc(F)cc3)CC2)s1`, the half-maximal activity concentration (AC50) under setting [1] is 0.00562 µM [falling, full curve, poor fit]. As to `CC(C)(C)n1cnc2cc(NS(=O)(=O)c3ccc(Br)cc3)ccc21`, the half-maximal activity concentration (AC50) is 35.5 µM [rising, single point] under setting [2] and 35.5 µM [rising, single point] under setting [1]. With `COc1ccccc1CNC(=O)C(Cc1c[nH]c2ccccc12)NC(=O)OCc1ccccc1` (configuration not stated), the AC50 under setting [1] is 11.2 µM [rising, partial curve]. As for `CCCOC(=O)c1ccc(Oc2coc3c(CN(CC)CC)c(O)ccc3c2=O)cc1`, under setting [1], the AC50 is 35.5 µM [rising, single point]. As for `Cc1nn(-c2ccccc2)c(N2CCCC2)c1/C=N/NC(=O)c1cc(-c2cccnc2)nc2ccccc12`, the AC50 is 31.6 µM [rising, single point] under setting [2] and 35.5 µM [rising, single point] under setting [1].

Turning to `CCOC(=O)c1c(C)oc2ccc(OC(=O)COc3c(F)c(F)c(F)c(F)c3F)cc12`, under setting [1], the concentration at half-maximal activity (AC50) was 0.0562 µM [falling, full curve, poor fit].

For the compound `O=C(CCCn1nnc(-c2cccnc2)n1)c1ccc(F)cc1`, under setting [1], the concentration at half-maximal activity (AC50) was 11.2 µM [rising, single point].

With `O=C(NCc1ccc(Cl)cc1)c1ccc2c(c1)NC(=O)C(CS(=O)(=O)Cc1ccc(F)cc1Cl)N2` (configuration not stated), the half-maximal activity concentration (AC50) under setting [1] is 20 µM [falling, partial curve, poor fit]. Turning to `O=C(COCC(=O)Nc1cccc(C(F)(F)F)c1)Nc1cccc(C(F)(F)F)c1`, the half-maximal activity concentration (AC50) under setting [2] was 11.2 µM [rising, partial curve].

Consider `Cc1cnc(NC(=O)CSc2nnc(CNc3ccc(F)cc3)n2CC2CCCO2)s1` (configuration not stated), for which the half-maximal activity concentration (AC50) was 35.5 µM [rising, single point] under setting [2] and 31.6 µM [rising, single point] under setting [1]. As to `Cc1ccc(C(=O)CSc2ncnc3ccccc23)o1`, under setting [1], the concentration at half-maximal activity (AC50) was 3.55 µM [rising, partial curve, poor fit].

With `COc1ccc(-n2c(CCc3ccccc3)nnc2SCC(=O)c2ccccc2)cc1`, the concentration at half-maximal activity (AC50) by setting is: under setting [2], 22.4 µM [rising, single point]; under setting [1], 28.2 µM [rising, partial curve, poor fit].

For orientation: AC50 means the concentration at which the activity in the assay is half-maximal.
